PubChem BioAssay AID1347076 (National Center for Advancing Translational Sciences (NCATS), 2019)
Hit rate of the full screen: of about 400,000 compounds, about 13,000 (3.2%) were called active. The inconclusive results got no clear call from the source; some entries with a clear call stand among them for comparison. The call rests on the fitted dose curve; in most records, active means well fitted cell-killing curve with a large enough effect; inconclusive means small, poorly fitted or top-dose-only effect, or effect the other way; inactive means flat fitted curve, though single readings scatter. Potencies of inconclusive entries are doubtful fits and often do not repeat.

Assay: qHTS assay for MDR1-selective chemotherapeutics: Primary screen using the drug-selected MDR subline cells KB-V1; further: nearly all actives have a fitted effect of over 60% in size
Details: KB-V1 MDR cells viability, CellTiter-Glo, 72 h; activity change, negative = cytotoxicity: at 46.1 µM (top of the series)
In short: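 qHTS viability screen in drug-selected KB-V1 MDR cells: 72 h compound treatment at 37 degrees C, ATP luminescence end point.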
On the % scale 0 is the no-effect control and ±100 the full control effect; potency means the concentration at half of the fitted maximal effect.

Row | SMILES | Potency | activity change, negative = cytotoxicity
1 | Cc1ccccc1NC(=O)Cn1c(=O)n(Cc2ccco2)c(=O)c2cccnc21 | inactive | 
2 | Cn1c(Oc2cccnc2CN2CCCC2)nc2cc(-c3cccc(C(F)(F)F)c3)sc2c1=O | inconclusive: 10.3 µM [cytotoxic, partial curve] | 
3 | C=CCn1c(SCC(=O)c2ccc(Br)cc2)nnc1C(CC(C)C)NC(=O)c1cccs1 (stereo unspecified) | inconclusive: 20.6 µM [cytotoxic, single point] | 
4 | Cc1ccc(NC(=O)CCl)c(C)c1 | inconclusive: 29.1 µM [cytotoxic, single point] | 
5 | Cc1ccccc1OCCn1cc(C=O)c2ccccc21 | active: 16.4 µM | 
6 | CCCCNC(=O)OC1CC2CC1[C@H]1CCCCN1C2=O (stereo partly specified) | inactive | 
7 | O=C(NC1CC1)C1=C[C@@H](c2coc3ccccc3c2=O)C[C@@H](OCCCCO)O1 | inactive | 
8 | CCc1ccc2c(c1)c(=O)c(C(=O)c1ccc(C)cc1)cn2CC(=O)Nc1ccc2c(c1)OCCO2 | inconclusive: 29.1 µM [rising, single point] | 
9 | Cc1cc(NS(=O)(=O)c2ccc(NC(=O)N[C@H](C(=O)O)C(C)C)cc2)no1 | inconclusive: 29.1 µM [rising, partial curve, poor fit] | 
10 | CN(CCCN1CCOCC1)Cc1cn(C)nc1-c1ccccc1F | inactive | 
11 | N=c1c2c(-c3ccccc3)c(-c3ccccc3)oc2ncn1Cc1ccco1 | active: 16.4 µM | 
12 | CNc1nc(Cl)nc(NC(C)(C)C)n1 | inconclusive: 29.1 µM [cytotoxic, single point] | 
13 | Cc1ccc(C)c(C(=O)COC(=O)c2c(-c3ccccc3)noc2C)c1 | inconclusive: 13 µM [cytotoxic, partial curve] | 
14 | CCOc1cc(CNc2ccc(OC)cc2)cc(Br)c1OCC(=O)NC(C)(C)C | inconclusive: 16.4 µM [cytotoxic, single point] | 
15 | O=C(C1CCN(S(=O)(=O)c2cccc3nsnc23)CC1)N1CCCc2ccccc21 | inconclusive: 16.4 µM [cytotoxic, single point] | 
16 | CC(C)C(=O)Nc1nc(-c2ccc([N+](=O)[O-])cc2)cs1 | inconclusive: 23.1 µM [cytotoxic, single point] | 
17 | CCOc1ccc(OCC)c(NC(=O)c2cnc(SC)nc2-c2ccccc2)c1 | inconclusive: 25.9 µM [cytotoxic, partial curve, poor fit] | 
18 | C[C@]12CC[C@H]3[C@@H](CCC4=CC(=O)CC[C@@]43C)[C@@H]1CC[C@@H]2C(=O)CO | active: 8.2 µM | 
19 | C[n+]1cccc(C(=O)Nc2ccccc2)c1 | inactive | 
20 | COc1cccc(C(=O)N2CCC[C@H]2C(=O)N2CCC[C@H]2C(=O)NCc2ccncc2)c1 | inactive | 
21 | Cc1cc(C)c(OCCCCNCc2ccccc2)c(Cl)c1 | active: 8.2 µM | 
22 | Cc1ccc(C)c(Cn2c(=O)n(-c3ccc(Cl)cc3)c(=O)c3c(C)c(C)sc32)c1 | inactive | 
23 | CNC(=S)N/N=C/c1c(C)nn(-c2ccccc2)c1Cl | inconclusive: 29.1 µM [cytotoxic, single point] | 
24 | CCOC(=O)c1c(C)[nH]c(C)c1S(=O)(=O)NCCCN1CCOCC1 | inconclusive: 20.6 µM [rising, single point] | 
25 | Cn1cc(CNCc2cn(C)nc2-c2ccc(C3CCCCC3)cc2)cn1 | inactive | 
26 | COc1ccc(OCC(=O)Nc2c3c(nn2-c2ccc(OC)cc2)CS(=O)(=O)C3)cc1 | inactive | 

Row | SMILES | Potency | activity change, negative = cytotoxicity
27 | Cc1sc2nc(C3CC3)nc(SCC(=O)N3c4ccccc4CC3C)c2c1C (stereo unspecified) | active: 5.8 µM | 
28 | CCOc1ccc(Cl)cc1S(=O)(=O)N1CCC(C(=O)N2CCCC2)CC1 |  | inconclusive: -29.6%
29 | CN(C)S(=O)(=O)c1ccc2c(c1)nnn2CCNC(=O)Nc1ccc(Cl)cc1 | inactive | 
30 | Cc1ccc(NC(C(=O)c2ccccc2)c2ccccc2)cc1 (stereo unspecified) | inactive | 
31 | O=C(O)c1cccc(N/N=C/c2cn(-c3ccccc3)nc2-c2cccs2)c1 | inactive | 
32 | Nc1nnnn1/N=C/c1ccco1 | inconclusive: 20.6 µM [rising, single point] | 
33 | COc1cnc(-c2ccccn2)nc1Oc1c(C)cccc1C | inconclusive: 0.0073 µM [cytotoxic, full curve, poor fit] | 
34 | CC(C)c1cc(C(=O)N2CCCC(CCC(=O)NCc3ccccc3F)C2)n(C)n1 (stereo unspecified) | active: 9.2 µM | 
35 | CCOC(=O)N1CCC(NC(=O)c2ccc(CO)c(C(=O)NC3CCN(C(=O)OCC)CC3)c2)CC1 | inconclusive: 18.4 µM [rising, single point] | 
36 | O=C(c1c(O)c2ccccc2oc1=O)C1CCC1 | inconclusive: 29.1 µM [cytotoxic, single point] | 
37 | CCc1nc2ccccc2n1CC(=O)NC1CCS(=O)(=O)C1 (stereo unspecified) | inactive | 
38 | Cn1nnnc1Sc1ncnc2scc(-c3cccc(S(C)(=O)=O)c3)c12 | inconclusive: 0.0046 µM [cytotoxic, full curve, poor fit] | 
39 | Cc1ccc(C(=O)C(c2ccccc2)N2Cc3ccccc3C2=N)cc1 (stereo unspecified) | inconclusive: 20.6 µM [cytotoxic, single point] | 
40 | Cc1ccc(C)c(Oc2nc3c(c(=O)n(C)c(=O)n3C)n2Cc2ccccc2)c1 | inconclusive: 29.1 µM [cytotoxic, single point] | 
41 | O=C(Nc1cccc(Cl)c1)c1ccc(NCC2CCCO2)c([N+](=O)[O-])c1 (stereo unspecified) | inactive | 
42 | CC1(S(=O)(=O)O)CC(=O)c2ccccc2C1=O (stereo unspecified) | inactive | 
43 | COc1cccc(C=CC(=O)C=CC=Cc2ccccc2)c1 | inconclusive: 11.6 µM [rising, partial curve] | 
44 | C=CCOc1ccc(C(=O)n2cc(C(=O)OC)c3ccccc32)cc1 | inconclusive: 10.3 µM [rising, partial curve] | 
45 | O=C(CN(C1CCCCC1)S(=O)(=O)c1ccc(F)cc1)NCc1ccncc1 | active: 8.2 µM | 
46 | CCCCNC(=O)c1ccccc1NC(=O)CN(c1ccccc1)S(=O)(=O)N(C)C | inconclusive: 29.1 µM [cytotoxic, single point] | 
47 | O=C(c1cc([N+](=O)[O-])ccc1Cl)N1CCN(Cc2ccccc2)CC1 | inactive | 
48 | O=C(c1ccc(-n2cccc2)cc1)N1CCN(Cc2ccccc2)CC1 | inconclusive: 11.2 µM [cytotoxic, partial curve] | 
49 | COc1ccc(C(=O)N/N=C/c2c(CO)cnc(C)c2O)cc1 | inconclusive: 20.6 µM [cytotoxic, single point] | 
50 | CCCC(=O)OCCNc1cc(SCc2ccco2)c2nonc2c1[N+](=O)[O-] | inactive | 
51 | CC(=O)c1ccc(OCCn2c(SCC(=O)O)nc3ccccc32)cc1 | inactive | 
52 | COc1ccc(NS(=O)(=O)c2ccc(Br)s2)cc1OC | active: 20.6 µM | 

7 records picked at random from those above, as already listed:
Row | SMILES | Potency | activity change, negative = cytotoxicity
29 | CN(C)S(=O)(=O)c1ccc2c(c1)nnn2CCNC(=O)Nc1ccc(Cl)cc1 | inactive | 
32 | Nc1nnnn1/N=C/c1ccco1 | inconclusive: 20.6 µM [rising, single point] | 
4 | Cc1ccc(NC(=O)CCl)c(C)c1 | inconclusive: 29.1 µM [cytotoxic, single point] | 
13 | Cc1ccc(C)c(C(=O)COC(=O)c2c(-c3ccccc3)noc2C)c1 | inconclusive: 13 µM [cytotoxic, partial curve] | 
49 | COc1ccc(C(=O)N/N=C/c2c(CO)cnc(C)c2O)cc1 | inconclusive: 20.6 µM [cytotoxic, single point] | 
14 | CCOc1cc(CNc2ccc(OC)cc2)cc(Br)c1OCC(=O)NC(C)(C)C | inconclusive: 16.4 µM [cytotoxic, single point] | 
22 | Cc1ccc(C)c(Cn2c(=O)n(-c3ccc(Cl)cc3)c(=O)c3c(C)c(C)sc32)c1 | inactive | 

Going on with the list:

Row | SMILES | Potency | activity change, negative = cytotoxicity
53 | C=CCN1C(=O)C(CC(=O)Nc2ccc(OC)cc2)N(Cc2ccco2)C1=S (stereo unspecified) | active: 20.6 µM | 
54 | Cc1ccc(-n2nnnc2SCC(=O)c2cc(C)n(CC3CCCO3)c2C)cc1 (stereo unspecified) | inconclusive: 9.2 µM [cytotoxic, partial curve] | 
55 | O=C(CSc1nc(=O)n(Cc2ccco2)c2c1CCC2)Nc1ccccc1C(F)(F)F | inactive | 
56 | CN(C)S(=O)(=O)c1ccc(C(=O)NCc2nc3ccccc3s2)cc1 | inconclusive: 23.1 µM [cytotoxic, single point] | 
57 | O=C1c2ccccc2[C@@H]2C[C@H]3O[C@H]3CCN12 | inconclusive: 29.1 µM [rising, single point] | 
58 | CC1=C(C(=O)Nc2ccccc2C(F)(F)F)C(c2ccc(C)s2)NC(=S)N1 (stereo unspecified) | inactive | 
59 | COc1ccc(OC)c(NC(=O)CSc2ccc3nnc(-c4ccccn4)n3n2)c1 | inactive | 
60 | Cc1ccc2c(c1)C=CC(C)(C)S2=O (stereo unspecified) | inconclusive: 29.1 µM [cytotoxic, single point] | 
61 | CCN(Cc1ccccc1)C(=O)Cn1c(=O)n(-c2ccc(Cl)cc2)c(=O)c2c(C)c(C)sc21 | inactive | 
62 | O=C(O)CCCCC1SCC2NC(=O)NC21 (stereo unspecified) | inactive | 
63 | CCc1nnc(SCC(=O)N(CC)c2ccccc2)c2cc3oc(C)cc3n12 | inactive | 
64 | COc1ccc(-c2cc(C(=O)OCC(=O)N(C)C3CCS(=O)(=O)C3)c3ccccc3n2)cc1OC (stereo unspecified) | inconclusive: 18.4 µM [cytotoxic, single point] | 
65 | CC(C)COc1ccc(C(=O)OC2CC(C)(C)OCC2CN(C)C)cc1 (stereo unspecified) | inconclusive: 14.6 µM [cytotoxic, partial curve] | 
66 | COc1ccc(OC)c(/C=N/NC(=O)CCN2CCN(C(c3ccccc3)c3ccccc3)CC2)c1 | inconclusive: 18.4 µM [cytotoxic, single point] | 
67 | CCOC(=O)CNC(c1ccccc1)c1cc(Br)ccc1NC(=O)c1cccc(Cl)c1 (stereo unspecified) | inconclusive: 7.31 µM [cytotoxic, partial curve] | 
68 | OC(c1ccccc1)c1ncc(-c2ccc(Oc3ccccc3)cc2)[nH]1 (stereo unspecified) | inactive | 
69 | CN(C)c1ccc(C=O)c(Oc2ccccc2)c1 | inactive | 
70 | Cc1ccc(CN2CCSc3ccc(C(=O)Nc4ccc(C)cc4)cc32)cc1 | inactive | 
71 | Cn1cccc1C(=O)OCC(=O)NC(=O)c1ccc(Cl)cc1 | inconclusive: 20.6 µM [rising, partial curve, poor fit] | 
72 | Cc1c(NC(=O)C(C)OC(=O)c2ccc([N+](=O)[O-])cc2Cl)c(=O)n(-c2ccccc2)n1C (stereo unspecified) | inactive | 
73 | COc1cc(Cl)c(C)cc1NC(=S)NN | inconclusive: 18.4 µM [cytotoxic, partial curve, poor fit] | 
74 | CCOC(=O)c1c(C)c(C(=O)NCc2ccc3c(c2)OCO3)c(C)n1CC | inactive | 
75 | CCOC(=O)CN(C(=O)c1snc(C(N)=O)c1N)C(C(=O)NC1CCCCC1)c1ccc(F)cc1 (stereo unspecified) | inactive | 
76 | CC(C)C(=O)N1CCCC1(C)C(=O)Nc1ccc(-n2cccc2)cc1 (stereo unspecified) | inactive | 
